Results are given in words; binding and its absence hold for the method and conditions named. Binding seen in cells or lysates may run through a third protein. Some entries that bind do so weakly or less than the wild type. For part of these data: Sequences can lack the tags named with a protein.
Legend:
GFP-MDA5 = molecular target: T1, GFP-MDA5 (UniProt Q9BYX4); assay: co-IP
T1 sequence: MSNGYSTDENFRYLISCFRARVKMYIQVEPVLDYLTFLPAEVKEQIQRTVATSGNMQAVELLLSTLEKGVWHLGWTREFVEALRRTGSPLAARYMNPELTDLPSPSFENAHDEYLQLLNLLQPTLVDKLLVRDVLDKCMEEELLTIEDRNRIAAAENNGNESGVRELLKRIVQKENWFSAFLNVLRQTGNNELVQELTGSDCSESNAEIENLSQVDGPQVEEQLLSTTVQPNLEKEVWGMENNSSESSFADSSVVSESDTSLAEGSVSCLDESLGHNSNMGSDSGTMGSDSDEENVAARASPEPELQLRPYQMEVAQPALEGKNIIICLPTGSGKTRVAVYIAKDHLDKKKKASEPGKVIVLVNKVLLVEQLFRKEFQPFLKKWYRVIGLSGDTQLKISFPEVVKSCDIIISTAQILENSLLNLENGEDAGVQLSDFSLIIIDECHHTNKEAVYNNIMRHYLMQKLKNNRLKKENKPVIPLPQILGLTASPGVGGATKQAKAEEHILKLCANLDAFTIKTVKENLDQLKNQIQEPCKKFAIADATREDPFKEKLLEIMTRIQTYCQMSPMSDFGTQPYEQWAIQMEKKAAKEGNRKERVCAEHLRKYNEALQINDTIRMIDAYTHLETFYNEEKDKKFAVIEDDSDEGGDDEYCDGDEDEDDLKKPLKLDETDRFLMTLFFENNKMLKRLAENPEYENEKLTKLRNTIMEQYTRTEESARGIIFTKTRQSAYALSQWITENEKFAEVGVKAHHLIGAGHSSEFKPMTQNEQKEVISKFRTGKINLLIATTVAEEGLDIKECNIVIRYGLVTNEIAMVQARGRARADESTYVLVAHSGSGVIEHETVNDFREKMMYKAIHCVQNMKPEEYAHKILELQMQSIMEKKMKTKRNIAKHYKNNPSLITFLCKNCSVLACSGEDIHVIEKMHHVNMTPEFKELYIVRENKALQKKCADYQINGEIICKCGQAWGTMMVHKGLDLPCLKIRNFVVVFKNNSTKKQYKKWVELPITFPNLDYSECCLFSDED

HA-TRIM4 = molecular target: T2, HA-TRIM4 (UniProt Q9C037); assay: co-IP
T2 sequence: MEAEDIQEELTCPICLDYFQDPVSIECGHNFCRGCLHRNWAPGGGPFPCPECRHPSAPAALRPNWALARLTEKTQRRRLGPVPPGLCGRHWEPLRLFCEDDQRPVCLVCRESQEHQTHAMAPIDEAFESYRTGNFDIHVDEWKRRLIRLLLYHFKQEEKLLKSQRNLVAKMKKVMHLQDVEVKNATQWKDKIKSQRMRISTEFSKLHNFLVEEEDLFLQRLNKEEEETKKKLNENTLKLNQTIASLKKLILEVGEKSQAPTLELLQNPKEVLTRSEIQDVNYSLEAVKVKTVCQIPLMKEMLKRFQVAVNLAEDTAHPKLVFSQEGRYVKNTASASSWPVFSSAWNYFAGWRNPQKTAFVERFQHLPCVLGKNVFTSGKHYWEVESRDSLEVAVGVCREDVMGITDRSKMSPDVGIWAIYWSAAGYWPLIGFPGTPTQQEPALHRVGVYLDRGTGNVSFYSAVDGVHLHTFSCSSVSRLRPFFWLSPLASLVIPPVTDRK

[1] = molecular target: T3, endogenous MDA5 (human (endogenous in HEK293T)) (UniProt Q9BYX4); assay: cross-linking + co-IP
T3 sequence: T1 sequence

Substance | binding (GFP-MDA5) | binding (HA-TRIM4) | binding [1]
Flag-nsp8 (SARS-CoV-2 nonstructural protein 8) (from UniProt P0DTD1 3943-4140) | binds | binds | –
nsp8 expressed from the Spike-deleted SARS-CoV-2 replicon (from UniProt P0DTD1 3943-4140) | – | – | binds
